Test results as given in patent publication US7951811B2, “Pyrrolo[2,3-D]pyrimidine derivatives substituted with a cyclic amino group” (Taisho Pharmaceutical Co., Ltd., priority 2004, dated 2011).
pIC50: −log10 of the molar value. Some of these results come from one statement about several compounds together.

Target: T1, CRF receptor (Macaca mulatta, UniProt Q76LL8)
T1 sequence (Q76LL8 24-415): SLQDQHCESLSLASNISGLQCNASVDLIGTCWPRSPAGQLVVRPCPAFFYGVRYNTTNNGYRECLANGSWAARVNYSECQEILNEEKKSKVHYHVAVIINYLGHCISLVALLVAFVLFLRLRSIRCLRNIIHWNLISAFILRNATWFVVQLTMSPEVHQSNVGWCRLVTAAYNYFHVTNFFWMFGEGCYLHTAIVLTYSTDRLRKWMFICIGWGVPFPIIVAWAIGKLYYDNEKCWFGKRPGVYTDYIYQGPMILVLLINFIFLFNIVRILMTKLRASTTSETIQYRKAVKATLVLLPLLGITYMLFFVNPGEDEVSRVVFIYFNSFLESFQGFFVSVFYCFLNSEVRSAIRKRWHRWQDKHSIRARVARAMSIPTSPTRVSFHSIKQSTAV
Assay: CRF receptor binding test (125I-CRF displacement)
Conditions: monkey amygdala membranes, 125I-CRF 0.2 nM, 25° C., 2 hours; read-out: IC50 (concentration at which binding of 125I-CRF is inhibited by 50%)

| SMILES | pIC50 |
| --- | --- |
| Cc1nc(N2CCC(CC(=O)O)CC2)c2c(C)c(C)n(-c3c(C)cc(Br)cc3C)c2n1 [Compound 1-001, {1-[7-(4-bromo-2,6-dimethyl-phenyl)-2,5,6-trimethyl-7H-pyrrolo[2,3-d]pyrimidin-4-yl]-piperidin-4-yl}-acetic acid] | ≥ 7.00 |
| Cc1nc(N2CCC(CC(=O)O)CC2)c2c(C)cn(-c3c(C)cc(Br)cc3C)c2n1 [Compound 1-002, {1-[7-(4-bromo-2,6-dimethyl-phenyl)-2,5-dimethyl-7H-pyrrolo[2,3-d]pyrimidin-4-yl]-piperidin-4-yl}-acetic acid] | ≥ 7.00 |
| Cc1cc(N2CCC(CC(=O)O)CC2)c2c(C)c(C)n(-c3c(C)cc(Br)cc3C)c2n1 [Compound 1-003, {1-[1-(4-bromo-2,6-dimethyl-phenyl)-2,3,6-trimethyl-1H-pyrrolo[2,3-b]pyridin-4-yl]-piperidin-4-yl}-acetic acid] | ≥ 7.00 |
| Cc1cc(N2CCC(CC(=O)O)CC2)c2c(C)cn(-c3c(C)cc(Br)cc3C)c2n1 [Compound 1-004, {1-[1-(4-bromo-2,6-dimethyl-phenyl)-3,6-dimethyl-1H-pyrrolo[2,3-b]pyridin-4-yl]-piperidin-4-yl}-acetic acid] | ≥ 7.00 |
| Cc1cc(N2CCC(CC(=O)O)CC2)c2c(C)c(C)n(-c3c(C)cc(Cl)cc3C)c2n1 [Compound 1-005, {1-[1-(4-chloro-2,6-dimethyl-phenyl)-2,3,6-trimethyl-1H-pyrrolo[2,3-b]pyridin-4-yl]-piperidin-4-yl}-acetic acid] | ≥ 7.00 |
| Cc1cc(N2CCC(CC(=O)O)CC2)c2c(C)cn(-c3c(C)cc(Cl)cc3C)c2n1 [Compound 1-006, {1-[1-(4-chloro-2,6-dimethyl-phenyl)-3,6-dimethyl-1H-pyrrolo[2,3-b]pyridin-4-yl]-piperidin-4-yl}-acetic acid] | ≥ 7.00 |
| Cc1cc(N2CCC(CC(=O)O)CC2)c2c(C)c(C)n(-c3c(Br)cc(C(C)C)cc3Br)c2n1 [Compound 1-007, {1-[1-(2,6-dibromo-4-isopropyl-phenyl)-2,3,6-trimethyl-1H-pyrrolo[2,3-b]pyridin-4-yl]-piperidin-4-yl}-acetic acid] | ≥ 7.00 |
| Cc1cc(N2CCC(CC(=O)O)CC2)c2c(C)cn(-c3c(Br)cc(C(C)C)cc3Br)c2n1 [Compound 1-008, {1-[1-(2,6-dibromo-4-isopropyl-phenyl)-3,6-dimethyl-1H-pyrrolo[2,3-b]pyridin-4-yl]-piperidin-4-yl}-acetic acid] | ≥ 7.00 |
| Cc1cc(N2CCC(CC(=O)O)CC2)c2c(C)cn(-c3c(Br)cc(Br)cc3Br)c2n1 [Compound 1-009, {1-[3,6-dimethyl-1-(2,4,6-tribromo-phenyl)-1H-pyrrolo[2,3-b]pyridin-4-yl]-piperidin-4-yl}-acetic acid] | ≥ 7.00 |
| Cc1cc(N2CCC(CC(=O)O)CC2)c2c(C)cn(-c3c(Cl)cc(Br)cc3Cl)c2n1 [Compound 1-010, {1-[1-(4-bromo-2,6-dichloro-phenyl)-3,6-dimethyl-1H-pyrrolo[2,3-b]pyridin-4-yl]-piperidin-4-yl}-acetic acid] | ≥ 7.00 |
| Cc1cc(N2CCC(CC(=O)O)CC2)c2c(C)cn(-c3c(Br)cc(Cl)cc3Br)c2n1 [Compound 1-012, {1-[1-(2,6-dibromo-4-chloro-phenyl)-3,6-dimethyl-1H-pyrrolo[2,3-b]pyridin-4-yl]-piperidin-4-yl}-acetic acid] | ≥ 7.00 |
| Cc1cc(N2CCC(CC(=O)O)CC2)c2c(C)cn(-c3ccc(C(C)C)cc3Br)c2n1 [Compound 1-014, {1-[1-(2-bromo-4-isopropyl-phenyl)-3,6-dimethyl-1H-pyrrolo[2,3-b]pyridin-4-yl]-piperidin-4-yl}-acetic acid] | ≥ 7.00 |
| CSc1cc(C(C)C)ccc1-n1cc(C)c2c(N3CCC(CC(=O)O)CC3)cc(C)nc21 [Compound 1-015, {1-[1-(4-isopropyl-2-methylsulfanyl-phenyl)-3,6-dimethyl-1H-pyrrolo[2,3-b]pyridin-4-yl]-piperidin-4-yl}-acetic acid] | ≥ 7.00 |
| Cc1nc(N2CCC(CCC(=O)O)CC2)c2c(C)c(C)n(-c3c(C)cc(Br)cc3C)c2n1 [Compound 1-017, 3-{1-[7-(4-bromo-2,6-dimethyl-phenyl)-2,5,6-trimethyl-7H-pyrrolo[2,3-d]pyrimidin-4-yl]-piperidin-4-yl}-propionic acid] | ≥ 7.00 |
| Cc1nc(N2CCC(CCC(=O)O)CC2)c2c(C)cn(-c3c(C)cc(Br)cc3C)c2n1 [Compound 1-018, 3-{1-[7-(4-bromo-2,6-dimethyl-phenyl)-2,5-dimethyl-7H-pyrrolo[2,3-d]pyrimidin-4-yl]-piperidin-4-yl}-propionic acid] | ≥ 7.00 |
| Cc1cc(N2CCC(CCC(=O)O)CC2)c2c(C)c(C)n(-c3c(C)cc(Br)cc3C)c2n1 [Compound 1-019, 3-{1-[1-(4-bromo-2,6-dimethyl-phenyl)-2,3,6-trimethyl-1H-pyrrolo[2,3-b]pyridin-4-yl]-piperidin-4-yl}-propionic acid] | ≥ 7.00 |

| SMILES | pIC50 |
| --- | --- |
| Cc1cc(N2CCC(CCC(=O)O)CC2)c2c(C)cn(-c3c(C)cc(Br)cc3C)c2n1 [Compound 1-020, 3-{1-[1-(4-bromo-2,6-dimethyl-phenyl)-3,6-dimethyl-1H-pyrrolo[2,3-b]pyridin-4-yl]-piperidin-4-yl}-propionic acid] | ≥ 7.00 |
| Cc1cc(N2CCC(CCC(=O)O)CC2)c2c(C)c(C)n(-c3c(C)cc(Cl)cc3C)c2n1 [Compound 1-021, 3-{1-[1-(4-chloro-2,6-dimethyl-phenyl)-2,3,6-trimethyl-1H-pyrrolo[2,3-b]pyridin-4-yl]-piperidin-4-yl}-propionic acid] | ≥ 7.00 |
| Cc1cc(N2CCC(CCC(=O)O)CC2)c2c(C)cn(-c3c(C)cc(Cl)cc3C)c2n1 [Compound 1-022, 3-{1-[1-(4-chloro-2,6-dimethyl-phenyl)-3,6-dimethyl-1H-pyrrolo[2,3-b]pyridin-4-yl]-piperidin-4-yl}-propionic acid] | ≥ 7.00 |
| Cc1cc(N2CCC(CCC(=O)O)CC2)c2c(C)c(C)n(-c3c(Br)cc(C(C)C)cc3Br)c2n1 [Compound 1-023, 3-{1-[1-(2,6-dibromo-4-isopropyl-phenyl)-2,3,6-trimethyl-1H-pyrrolo[2,3-b]pyridin-4-yl]-piperidin-4-yl}-propionic acid] | ≥ 7.00 |
| Cc1cc(N2CCC(CCC(=O)O)CC2)c2c(C)cn(-c3c(Br)cc(C(C)C)cc3Br)c2n1 [Compound 1-024, 3-{1-[1-(2,6-dibromo-4-isopropyl-phenyl)-3,6-dimethyl-1H-pyrrolo[2,3-b]pyridin-4-yl]-piperidin-4-yl}-propionic acid] | ≥ 7.00 |
| Cc1cc(N2CCC(CCC(=O)O)CC2)c2c(C)cn(-c3c(Cl)cc(Br)cc3Cl)c2n1 [Compound 1-025, 3-{1-[1-(4-bromo-2,6-dichloro-phenyl)-3,6-dimethyl-1H-pyrrolo[2,3-b]pyridin-4-yl]-piperidin-4-yl}-propionic acid] | ≥ 7.00 |
| Cc1cc(N2CCC(CCC(=O)O)CC2)c2c(C)cn(-c3c(Br)cc(Cl)cc3Br)c2n1 [Compound 1-027, 3-{1-[1-(2,6-dibromo-4-chloro-phenyl)-3,6-dimethyl-1H-pyrrolo[2,3-b]pyridin-4-yl]-piperidin-4-yl}-propionic acid] | ≥ 7.00 |
| COc1cc(C)c(-n2cc(C)c3c(N4CCC(CCC(=O)O)CC4)cc(C)nc32)c(C)c1 [Compound 1-028, 3-{1-[1′-(4-methoxy-2,6-dimethyl-phenyl)-3,6-dimethyl-1H-pyrrolo[2,3-b]pyridin-4-yl]-piperidin-4-yl}-propionic acid] | ≥ 7.00 |
| Cc1cc(N2CCC(CCC(=O)O)CC2)c2c(C)cn(-c3ccc(C(C)C)cc3Br)c2n1 [Compound 1-029, 3-{1-[1-(2-bromo-4-isopropyl-phenyl)-3,6-dimethyl-1H-pyrrolo[2,3-b]pyridin-4-yl]-piperidin-4-yl}-propionic acid] | ≥ 7.00 |
| CSc1cc(C(C)C)ccc1-n1cc(C)c2c(N3CCC(CCC(=O)O)CC3)cc(C)nc21 [Compound 1-030, 3-{1-[1-(4-isopropyl-2-methylsulfanyl-phenyl)-3,6-dimethyl-1H-pyrrolo[2,3-b]pyridin-4-yl]-piperidin-4-yl}-propionic acid] | ≥ 7.00 |
| Cc1cc(N2CCC(CCCC(=O)O)CC2)c2c(C)c(C)n(-c3c(C)cc(Br)cc3C)c2n1 [Compound 1-032, 4-{1-[1-(4-bromo-2,6-dimethyl-phenyl)-2,3,6-trimethyl-1H-pyrrolo[2,3-b]pyridin-4-yl]-piperidin-4-yl}-butyric acid] | ≥ 7.00 |
| Cc1cc(N2CCC(CCCC(=O)O)CC2)c2c(C)cn(-c3c(C)cc(Br)cc3C)c2n1 [Compound 1-033, 4-{1-[1-(4-bromo-2,6-dimethyl-phenyl)-3,6-dimethyl-1H-pyrrolo[2,3-b]pyridin-4-yl]-piperidin-4-yl}-butyric acid] | ≥ 7.00 |
| Cc1cc(N2CCCC(CC(=O)O)C2)c2c(C)cn(-c3c(C)cc(Br)cc3C)c2n1 (stereo not shown) [Compound 1-035, {1-[1-(4-bromo-2,6-dimethyl-phenyl)-3,6-dimethyl-1H-pyrrolo[2,3-b]pyridin-4-yl]-piperidin-3-yl}-acetic acid] | ≥ 7.00 |
| Cc1cc(N2CCC(CCC(N)=O)CC2)c2c(C)cn(-c3c(C)cc(Br)cc3C)c2n1 [Compound 1-042, 3-{1-[1-(4-bromo-2,6-dimethyl-phenyl)-3,6-dimethyl-1H-pyrrolo[2,3-b]pyridin-4-yl]-piperidin-4-yl}-propionamide] | ≥ 7.00 |
| Cc1cc(N2CCC(CS(=O)(=O)O)CC2)c2c(C)cn(-c3c(C)cc(Br)cc3C)c2n1 [Compound 1-047, {1-[1-(4-bromo-2,6-dimethyl-phenyl)-3,6-dimethyl-1H-pyrrolo[2,3-b]pyridin-4-yl]-piperidin-4-yl}-methanesulfonic acid] | ≥ 7.00 |
